# These are yes or no findings as the source states them, for the method shown. Binding calls can cover weak binding; strength is not graded here.
# Target: T1, Nup85 (X. laevis (endogenous in oocytes)) (UniProt Q68FJ0)
# T1 sequence: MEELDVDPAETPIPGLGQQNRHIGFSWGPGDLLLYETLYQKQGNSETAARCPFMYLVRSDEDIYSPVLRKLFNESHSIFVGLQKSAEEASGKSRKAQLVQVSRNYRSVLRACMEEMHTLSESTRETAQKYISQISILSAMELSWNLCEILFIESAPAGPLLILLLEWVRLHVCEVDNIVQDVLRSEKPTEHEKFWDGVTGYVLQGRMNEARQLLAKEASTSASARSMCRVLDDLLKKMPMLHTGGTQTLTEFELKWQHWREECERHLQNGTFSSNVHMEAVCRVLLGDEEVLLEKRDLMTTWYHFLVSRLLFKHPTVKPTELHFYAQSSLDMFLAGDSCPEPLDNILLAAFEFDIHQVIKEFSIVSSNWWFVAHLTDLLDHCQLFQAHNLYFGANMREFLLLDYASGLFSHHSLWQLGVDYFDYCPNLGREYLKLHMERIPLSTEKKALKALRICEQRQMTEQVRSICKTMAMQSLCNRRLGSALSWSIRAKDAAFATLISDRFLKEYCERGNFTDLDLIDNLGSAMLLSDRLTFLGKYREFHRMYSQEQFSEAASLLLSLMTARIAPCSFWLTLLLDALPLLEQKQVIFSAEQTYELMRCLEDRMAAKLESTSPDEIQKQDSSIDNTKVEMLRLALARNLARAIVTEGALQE
# Assay: cryo-EM structure
substance,measurement,value
Nup205 (X. laevis (endogenous in oocytes)),binding,binds

# Reference: publication doi:10.1101/2021.11.10.468004
